Results on 4 molecules are retold here after paper doi:10.1101/2021.09.13.460056.

To fix the notation:
B1: PBP1 (protein, UniProt Q57UZ7 1-550)
chain: MEGSHSSNMERLEYLYLNLVGQVVQVRLVDDMCVEGLFVACTDVDAETDAGIMICCTRNLASAKRSPLSPSCVNFTDDLFIPYQSIVMIEVQNAKIRTETPGRPDTGRADFSATKFDWADDGVSELLESEPHQTGTWNQFEANEKSFGVKTTYKEEFYTTRLDHSKITEEQRAQADRLAREIESSSTRGIAHRMEREECLHDDEGLDEGQLYSDVHRPQEKKPPYVPPSTGGRKLVNEPPPVPAAAAPATAPTTAPAAAPAPAAAPPAAAPAAAAPPPPPAATSMADDGSMRHKRMNEDPHHMQYDANQTAAGFNPAAAPYTPMKPGAAVPVVDFLASLADAISNNDMCYDCEPHWPGMCNLFYDQDDSSYSQQNYEAAAMPPSHSMNMHMYVNSQPNIPNAHRGYQGPLGRVPHNQSMPMHHMQGQGFHHEMHHHQAFHGMGNYSSQHHNPPIQEYAPHKGQQGVVSRPGMRQGKGGGASRVEPQQPVSANTASSPPPVPTVDSAPNEVKPPAKLQRGRGMAAFTKGDMDGDSGATTNATGGPKKRVGK
B2: MKT1 (protein, UniProt Q587E3 1-735)
chain: MYPRHDDVSLFQRFVNDHKLEEKGLPLYQLAQLEGTDQVMLGVDGTKIIDMITQAVREREKMAIYTYTTPYTVYEKINEFRTMFQSIKNCTPVFVFNGIQYSPDSAEEFGREKNVVPSEVAALTGTDSSRLSNTTNVRFAEIHKKTANRFVVEEDVEGQIIRIFRSEFKNTIRAPYLAWAQLSSFRHCNHRHISEVYGCLELLAFPGIDRVVTNINPTRGTFDVVYKARVLEAARLSEEDLSSLILVESRSRVMRTVTLKFSSLEDMIKKVVRYKGSTIGASFAQQLHEEAIRASEANRMRASNQRGAAFRNLSAFASPVLTLTPPHCLPLHFLYGIPGFPHADAESFVGLPLPPVLYYIMSAGLLSPSLFAAVSQETVVDDWPLVDSIKYRDVAETVLPLRVQTIYQLAWTMSRGLGSISWFRRYNVLPARVSKLHVPPAIQLDGWALHSVTVPRGLHLVDVMEFAHLACSVDQVIYNTMEETYAAILLQSLDLLGYLTHETQDLHEEGQSSEPSTFGRALQLCSVPTLSEYTVLLIELARTNAISTEPFRITTEEVSPRDTPRDIVFASRVLSIIPLNVSGPWTAPIDAELAAFSMLSRMISRSIRQLLEAITTLMFSKGRTHVPLHRIGEIQRLLPFSTPVEFGCGVLVEYMLMKDKCTLKDLEEAFPECTYLRHDLATLFYFWDLAVQVLQRIETKENFCVDQHCLSSANERMKRAQKNLNILTGVRETYY
B3: XAC1 (protein, UniProt Q57Y88 1-117)
chain: MSKAPSQPAKKWMSARTLAKSEDATNRKSNTAAPASQPSQQPASVMHERPTPPPPAPVQLPQSVFFERQEAVDTLSNLYRNAQSVKKIETGPAAFEARDISKVHEELMDCLRPAAAA
B4: LSM12 (protein, UniProt Q38E83 1-190)
chain: MPVCNNDSQLIGLGVSVTLADDTTVNGTVYTYNSSEGLLVLFQGFSGSNPNVKIIRTPFIKEVTALRDNEEKLPPQLEAKARLPSMQAARDRSLFKHASSQLRNAKDKRNQLLQTDDQKTPIAALDTLIKLERIYPDIHWDKDAGVIRFNQDVVVKGKPDWTSPAVVIAEGAGDISRSLMERVQKTLSKK

Results are given in words; binding and its absence hold for the method and conditions named. In cells and extracts the contact can be indirect. Here binding means that the protein was enriched with, or labelled near, the bait; the list need not be complete. A no says only that the protein was not detected with the bait.

This assay has as its target DRBD18 with a C-terminal TAP (tandem affinity purification) tag (Trypanosoma brucei). Kind of assay: affinity purification with mass spectrometry.
On to B1, for which the binding result is “no binding”. The value for B2 was “no binding”; that for B3 was “no binding”; that for B4 was “no binding”.
